Assay results published in patent US20160058735A1, “METHODS OF TREATING HYPERHIDROSIS” (Dermira, Inc., priority 2014, published 2016).

Columns and labels:
[1] = test system: patients with severe primary axillary hyperhidrosis; test: Study DRM04-HH01 (Phase 2b): HDSS improvement; type: in vivo, human; conditions: 1-4%, four weeks
Description: In Study DRM04-HH01, 198 patients with severe primary axillary hyperhidrosis were randomized to receive a topical formulation containing one of four concentrations of the reference agent (1%, 2%, 3% or 4%) or vehicle only. As in the Phase 2a clinical trial, patients were instructed to apply the study product once daily for four weeks using wipes saturated with either the topical formulation of the reference agent or vehicle only, and efficacy was evaluated based on axillary sweat production and the HDSS. Assessments were conducted approximately weekly during the four-week treatment period and the two-week period after the end of this treatment period. All 198 patients enrolled in the clinical trial rated the severity of their disease as a three or a four on the four-point HDSS prior to the start of treatment. […]
The two primary efficacy endpoints evaluated in this trial were (1) the proportion of patients achieving an improvement of at least two points from baseline in HDSS score and (2) the average absolute change from baseline in sweat production, each as measured at the end of the four-week treatment period. For the purpose of the primary endpoint pertaining to sweat production, sweat production was assessed in each patient as the average of the amounts of sweat produced in each axilla during a five-minute period.

[2] = test system: patients with severe primary axillary hyperhidrosis; conditions: 1-4% cohorts
Description: Assessments were conducted approximately weekly during the four-week treatment period and the two-week period after the end of this treatment period. […] Trial inclusion criteria required that prior to the start of treatment, all patients produce at least 50 mg of sweat in each axilla over a five-minute period.

With `C[N+]1(C)CCC(OC(=O)C(O)(c2ccccc2)C2CCCC2)C1.[Br-]` (stereo not drawn) [reference agent, threo-glycopyrronium bromide] the “both primary efficacy endpoints (HDSS improvement, sweat production) relative to vehicle” value [1] was “dose-dependent and, at certain doses, statistically significant improvements relative to vehicle” and the “frequency of dry mouth, dry skin and blurred vision by concentration” value [2] was “generally observed more frequently in patients who received higher concentrations”.
